# Source: patent US10220040B2, “Compounds, compositions and methods useful for cholesterol mobilization” (Cerenis Therapeutics Holding SA, priority 2010, dated 2019)
# At least one structure is not confirmed: it was looked up by name or label, or the drawing left a doubt.
# System: HepG2 cells
# Assay: In vitro HDL internalization in human hepatocytes (HepG2) cells
# Format: cell-based
# Details: compound 1 μM; 3H-labeled HDL 75 μg/ml, 10 min at 37° C.
# Experimental: FIG. 3: Single-dose effect of the selected molecules on HDL internalization by HepG2 cells. Cells were incubated for 10 min at 37° C. with 75 μg/ml ^3H cholesterol Cholesteryl Oleate [Cholesteryl-1,2-^3H(N)] HDL, Reference Compound (100 nM) and illustrative compounds of the invention (1 μM). Data are expressed as the percentage of internalized radioactivity with respect to the control value (set as […]). *p<0.005, **p<0.0001.
# The effect of illustrative compounds of the invention on HDL internalization was measured by an in vitro assay on HepG2 cells (FIG. 3). ^3H cholesterol Cholesteryl Oleate [Cholesteryl-1,2-^3H(N)] labeled HDL] (available from PerkinElmer http://www.perkinelmer.com/Catalog/Product/ID/NET746L001MC) was loaded on HepG2 cells in presence of illustrative compounds of the invention (final concentration 1 μM). […] It was determined that Compounds XIa, IIc, IIa and Ih (R-isomer) have a strong impact on HDL uptake by HepG2 cells; Compounds IIb, VIIa and VIIIa have a modest impact on HDL uptake by HepG2 cells.
# ^3H cholesterol Cholesteryl Oleate [Cholesteryl-1,2-^3H(N)] (Perkin Elmer) solution (250 μL) was dried and resuspended in acetone (250 μL). The solution was mixed with Lipoprotein delipidated serum (20 mL at 40 mg/mL) and DTNB (0.4 μM final concentration). HDL (7 mg) was added and incubated overnight at 4° C. on gentle rotation. […]
smiles,measurement,value
"CCOc1cc(C2CC(=O)Nc3c2cnn3-c2ccccc2CC)ccc1O (stereo not shown) [Compound VIIIa, 4-(3-Ethoxy-4-hydroxy-phenyl)-1-(2-ethyl-phenyl)-1,4,5,7-tetrahydro-pyrazolo[3,4-b]pyridin-6-one]",impact on HDL uptake by HepG2 cells,modest impact
